Results on two substances are retold here after doi:10.1101/2025.03.05.641767.

By UniProt entry, the sequences of proteins in these tests, tags left out.
UniProt P43363: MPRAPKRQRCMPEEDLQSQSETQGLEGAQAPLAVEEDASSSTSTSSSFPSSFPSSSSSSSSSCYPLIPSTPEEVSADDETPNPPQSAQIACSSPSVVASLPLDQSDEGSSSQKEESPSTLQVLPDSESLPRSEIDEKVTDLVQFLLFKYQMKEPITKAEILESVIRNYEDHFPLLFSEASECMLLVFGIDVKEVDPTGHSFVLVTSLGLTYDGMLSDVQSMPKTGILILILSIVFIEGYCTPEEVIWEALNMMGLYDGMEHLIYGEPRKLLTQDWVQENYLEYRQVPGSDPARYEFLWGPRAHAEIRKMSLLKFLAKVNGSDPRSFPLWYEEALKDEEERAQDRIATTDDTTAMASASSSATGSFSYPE
UniProt Q92831: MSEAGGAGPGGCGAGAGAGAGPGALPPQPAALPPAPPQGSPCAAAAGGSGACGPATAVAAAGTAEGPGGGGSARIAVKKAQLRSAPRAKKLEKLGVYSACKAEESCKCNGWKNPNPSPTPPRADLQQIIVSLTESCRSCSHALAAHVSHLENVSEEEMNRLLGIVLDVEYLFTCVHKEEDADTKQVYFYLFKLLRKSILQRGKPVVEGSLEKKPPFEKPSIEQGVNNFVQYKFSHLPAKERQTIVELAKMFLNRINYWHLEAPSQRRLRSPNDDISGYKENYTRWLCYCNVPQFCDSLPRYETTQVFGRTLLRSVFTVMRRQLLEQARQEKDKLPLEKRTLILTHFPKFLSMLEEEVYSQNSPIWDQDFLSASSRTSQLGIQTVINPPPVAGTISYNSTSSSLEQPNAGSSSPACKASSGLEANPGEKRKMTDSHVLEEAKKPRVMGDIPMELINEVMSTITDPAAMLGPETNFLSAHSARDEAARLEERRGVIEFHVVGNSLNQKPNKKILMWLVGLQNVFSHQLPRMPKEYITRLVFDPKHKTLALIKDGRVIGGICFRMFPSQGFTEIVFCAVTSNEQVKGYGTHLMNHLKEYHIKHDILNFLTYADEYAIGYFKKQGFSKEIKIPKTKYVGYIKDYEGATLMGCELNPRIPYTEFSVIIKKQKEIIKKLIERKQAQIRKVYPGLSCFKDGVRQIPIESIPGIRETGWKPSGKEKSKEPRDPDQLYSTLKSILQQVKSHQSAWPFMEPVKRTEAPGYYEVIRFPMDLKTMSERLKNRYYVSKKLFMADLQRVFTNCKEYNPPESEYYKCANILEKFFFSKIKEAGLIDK
UniProt Q92830: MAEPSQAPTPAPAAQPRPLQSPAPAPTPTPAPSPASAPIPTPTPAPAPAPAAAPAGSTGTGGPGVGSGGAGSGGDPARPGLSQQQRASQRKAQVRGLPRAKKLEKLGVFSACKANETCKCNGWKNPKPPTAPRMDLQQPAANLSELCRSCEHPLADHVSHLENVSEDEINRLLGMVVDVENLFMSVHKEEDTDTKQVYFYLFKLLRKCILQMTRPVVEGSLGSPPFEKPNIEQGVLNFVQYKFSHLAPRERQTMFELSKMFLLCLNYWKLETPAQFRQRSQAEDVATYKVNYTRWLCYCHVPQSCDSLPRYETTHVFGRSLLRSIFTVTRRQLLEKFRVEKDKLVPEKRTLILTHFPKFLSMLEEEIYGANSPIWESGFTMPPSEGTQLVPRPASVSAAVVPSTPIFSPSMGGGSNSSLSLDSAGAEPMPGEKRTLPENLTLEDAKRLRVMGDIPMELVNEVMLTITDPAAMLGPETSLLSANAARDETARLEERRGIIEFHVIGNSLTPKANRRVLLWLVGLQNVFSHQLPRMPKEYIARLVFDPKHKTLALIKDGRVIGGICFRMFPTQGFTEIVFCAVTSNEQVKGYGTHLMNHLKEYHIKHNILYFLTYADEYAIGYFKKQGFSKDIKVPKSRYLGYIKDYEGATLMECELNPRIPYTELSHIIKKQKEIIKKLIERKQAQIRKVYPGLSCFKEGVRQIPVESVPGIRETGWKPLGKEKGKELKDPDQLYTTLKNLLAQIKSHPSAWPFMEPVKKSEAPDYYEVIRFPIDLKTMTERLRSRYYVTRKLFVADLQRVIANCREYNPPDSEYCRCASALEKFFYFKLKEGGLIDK

The assay addresses TAP-MAGE-A10 (human) (UniProt P43363). Put plainly: affinity purification with mass spectrometry.

No constants are given. Whether binding was seen depends on the method and setting. Binding seen in cells or lysates may run through a third protein. These calls come from enrichment with a bait or labelling near it, and not all partners need be listed.

With “KAT2B (endogenous) (from UniProt Q92831 1-832) (enzyme)”, the binding result was “binds”. With “KAT2A (endogenous) (from UniProt Q92830 1-837) (enzyme)”, the binding entry is recorded as “binds”.
